Test results reported in patent US10450346B2, “Immunotherapy against several tumors of the blood, in particular chronic lymphoid leukemia (CLL)” (Immatics biotechnologies GmbH, priority 2014, dated 2019).

System: primary CLL samples (PBMC from CLL patients), HLA class I ligands
Test: HLA class I ligandome analysis by LC-MS/MS (frequency of HLA restricted presentation)
Parameters: species or system human
Conditions: for Number of positive CLLs: CLL patient HLA class I ligandomes (n = 30); for Number of positive CLLs (frequency [%]): source protein (LiTAA) representation in CLL patient HLA class I ligandomes (n = 30)

| Molecule | Number of positive CLLs | Number of positive CLLs (frequency [%]) |
| --- | --- | --- |
| A kinase (PRKA) anchor protein 2 (protein, UniProt Q9Y2D5 1-1103, looked up, LiTAA source protein) PALM2-AKAP2 fusion protein: MAEAELHKERLQAIAEKRKRQTEIEGKRQQLDEQILLLQHSKSKVLREKWLLQGIPAGTAEEEEARRRQSEEDEFRVKQLEDNIQRLEQEIQTLESEESQISAKEQIILEKLKETEKSFKDFQKGFSSTDGDAVNYISSQLPDLPILCSRTAEPSPGQDGTSRAAGVGWENVLLKEGESASNATETSGPDMTIKKPPQLSEDDIWLKSEGDNYSATLLEPAASSLSPDHKNMEIEVSVAECKSVPGITSTPHPMDHPSAFYSPPHNGLLTDHHESLDNDVAREIRYLDEVLEANCCDSAVDGTYNGTSSPEPGAVVLVGGLSPPVHEATQPEPTERTASRQAPPHIELSNSSPDPMAEAERTNGHSPSQPRDALGDSLQVPVSPSSTTSSRCSSRDGEFTLTTLKKEAKFELRAFHEDKKPSKLFEDDEHEKEQYCIRKVRPSEEMLELEKERRELIRSQAVKKNPGIAAKWWNPPQEKTIEEQLDEEHLESHKKYKERKERRAQQEQLLLQKQLQQQQQQPPSQLCTAPASSHERASMIDKAKEDIVTEQIDFSAARKQFQLMENSRQAVAKGQSTPRLFSIKPFYRPLGSVNSDKPLTNPRPPSVGGPPEDSGASAAKGQKSPGALETPSAAGSQGNTASQGKEGPYSEPSKRGPLSKLWAEDGEFTSARAVLTVVKDDDHGILDQFSRSVNVSLTQEELDSGLDELSVRSQDTTVLETLSNDFSMDNISDSGASNETTNALQENSLADFSLPQTPQTDNPSEGRGEGVSKSFSDHGFYSPSSTLGDSPLVDDPLEYQAGLLVQNAIQQAIAEQVDKAVSKTSRDGAEQQGPEATVEEAEAAAFGSEKPQSMFEPPQVSSPVQEKRDVLPKILPAEDRALRERGPPQPLPAVQPSGPINMEETRPEGSYFSKYSEAAELRSTASLLATQESDVMVGPFKLRSRKQRTLSMIEEEIRAAQEREEELKRQRQVLQSTQSPRTKNAPSLPSRTCYKTAPGKIEKVKPPPSPTTEGPSLQPDLAPEEAAGTQRPKNLMQTLMEDYETHKSKRRERMDDSSYTSKLLSCKVTSEVLEATRVNRRKSALALRWEAGIYANQEEEDNE | 11 | 36.7% |
| CTD phosphatase, subunit 1 (protein, UniProt Q9Y5B0 1-961, looked up, LiTAA source protein) RNA polymerase II subunit A …: MEVPAAGRVPAEGAPTAAVAEVRCPGPAPLRLLEWRVAAGAAVRIGSVLAVFEAAASAQSSGASQSRVASGGCVRPARPERRLRSERAGVVRELCAQPGQVVAPGAVLVRLEGCSHPVVMKGLCAECGQDLTQLQSKNGKQQVPLSTATVSMVHSVPELMVSSEQAEQLGREDQQRLHRNRKLVLMVDLDQTLIHTTEQHCQQMSNKGIFHFQLGRGEPMLHTRLRPHCKDFLEKIAKLYELHVFTFGSRLYAHTIAGFLDPEKKLFSHRILSRDECIDPFSKTGNLRNLFPCGDSMVCIIDDREDVWKFAPNLITVKKYVYFQGTGDMNAPPGSRESQTRKKVNHSRGTEVSEPSPPVRDPEGVTQAPGVEPSNGLEKPARELNGSEAATPRDSPRPGKPDERDIWPPAQAPTSSQELAGAPEPQGSCAQGGRVAPGQRPAQGATGTDLDFDLSSDSESSSESEGTKSSSSASDGESEGKRGRQKPKAAPEGAGALAQGSSLEPGRPAAPSLPGEAEPGAHAPDKEPELGGQEEGERDGLCGLGNGCADRKEAETESQNSELSGVTAGESLDQSMEEEEEEDTDEDDHLIYLEEILVRVHTDYYAKYDRYLNKEIEEAPDIRKIVPELKSKVLADVAIIFSGLHPTNFPIEKTREHYHATALGAKILTRLVLSPDAPDRATHLIAARAGTEKVLQAQECGHLHVVNPDWLWSCLERWDKVEEQLFPLRDDHTKAQRENSPAAFPDREGVPPTALFHPMPVLPKAQPGPEVRIYDSNTGKLIRTGARGPPAPSSSLPIRQEPSSFRAVPPPQPQMFGEELPDAQDGEQPGPSRRKRQPSMSETMPLYTLCKEDLESMDKEVDDILGEGSDDSDSEKRRPEEQEEEPQPRKPGTRRERTLGAPASSERSAAGGRGPRGHKRKLNEEDAASESSRESSNEDEGSSSEADEMAKALEAELNDLM | 11 | 36.7% |
